The other results are listed elsewhere or left out.
Columns and labels:
Test in all cases: log2 fold change, soluble protein after heating vs DMSO (PISA); higher = thermal stabilisation; K562 lysate, 10 uM; active = over 0.2 and 3.5 SD of the protein, either way, in both replicates (recomputed)
[1] = compound: C#Cc1cccc(Nc2ncnc3cc(OCCOC)c(OCCOC)cc23)c1 [erlotinib]
Summary of the method: (§1)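 Values give the log-two fold change in thermal stability against solvent controls, from duplicates. Crude K562 extract at 1 mg/mL protein, made by dounce homogenisation in PBS pH 7.4 with 1 mM MgCl2, was treated with 10 μM compound for 30 min. After 3 min heating across 48°C-58°C, aliquots were pooled, adjusted to 0.5% NP-40 at 4°C and centrifuged at 21,000xg for 90 min. The supernatant was measured by TMTpro 16plex LC-MS/MS with channel sums equalised.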

By UniProt entry, the sequences of proteins in these tests, tags left out. Where a name states a change or a piece, a line headed by the entry shows the natural chain unless it says otherwise.
UniProt Q96DC8: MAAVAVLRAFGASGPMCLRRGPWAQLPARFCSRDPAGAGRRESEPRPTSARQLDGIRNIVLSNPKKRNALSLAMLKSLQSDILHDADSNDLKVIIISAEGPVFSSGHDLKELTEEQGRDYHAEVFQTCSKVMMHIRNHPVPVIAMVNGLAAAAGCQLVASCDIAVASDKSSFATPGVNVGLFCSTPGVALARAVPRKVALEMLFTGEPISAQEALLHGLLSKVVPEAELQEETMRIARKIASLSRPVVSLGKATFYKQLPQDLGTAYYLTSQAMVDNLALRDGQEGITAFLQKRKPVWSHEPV
UniProt Q16610: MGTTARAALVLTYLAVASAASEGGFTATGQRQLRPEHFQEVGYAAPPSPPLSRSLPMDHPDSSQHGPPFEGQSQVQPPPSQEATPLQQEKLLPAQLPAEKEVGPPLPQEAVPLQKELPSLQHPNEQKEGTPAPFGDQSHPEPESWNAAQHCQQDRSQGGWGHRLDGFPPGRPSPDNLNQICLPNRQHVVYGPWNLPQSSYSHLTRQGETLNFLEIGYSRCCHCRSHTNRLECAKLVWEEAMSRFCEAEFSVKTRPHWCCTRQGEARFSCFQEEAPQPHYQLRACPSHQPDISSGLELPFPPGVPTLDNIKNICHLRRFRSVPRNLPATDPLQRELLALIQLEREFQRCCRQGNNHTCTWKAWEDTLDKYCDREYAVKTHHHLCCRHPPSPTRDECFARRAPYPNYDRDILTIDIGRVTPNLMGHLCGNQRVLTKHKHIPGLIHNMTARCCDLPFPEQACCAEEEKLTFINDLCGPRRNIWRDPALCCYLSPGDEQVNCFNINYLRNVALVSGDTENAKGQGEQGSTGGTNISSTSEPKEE
UniProt Q9NP97, whole entry, looked up: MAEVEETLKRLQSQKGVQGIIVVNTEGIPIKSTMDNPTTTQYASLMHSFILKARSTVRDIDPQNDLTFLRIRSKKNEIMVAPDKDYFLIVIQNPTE
UniProt O00418: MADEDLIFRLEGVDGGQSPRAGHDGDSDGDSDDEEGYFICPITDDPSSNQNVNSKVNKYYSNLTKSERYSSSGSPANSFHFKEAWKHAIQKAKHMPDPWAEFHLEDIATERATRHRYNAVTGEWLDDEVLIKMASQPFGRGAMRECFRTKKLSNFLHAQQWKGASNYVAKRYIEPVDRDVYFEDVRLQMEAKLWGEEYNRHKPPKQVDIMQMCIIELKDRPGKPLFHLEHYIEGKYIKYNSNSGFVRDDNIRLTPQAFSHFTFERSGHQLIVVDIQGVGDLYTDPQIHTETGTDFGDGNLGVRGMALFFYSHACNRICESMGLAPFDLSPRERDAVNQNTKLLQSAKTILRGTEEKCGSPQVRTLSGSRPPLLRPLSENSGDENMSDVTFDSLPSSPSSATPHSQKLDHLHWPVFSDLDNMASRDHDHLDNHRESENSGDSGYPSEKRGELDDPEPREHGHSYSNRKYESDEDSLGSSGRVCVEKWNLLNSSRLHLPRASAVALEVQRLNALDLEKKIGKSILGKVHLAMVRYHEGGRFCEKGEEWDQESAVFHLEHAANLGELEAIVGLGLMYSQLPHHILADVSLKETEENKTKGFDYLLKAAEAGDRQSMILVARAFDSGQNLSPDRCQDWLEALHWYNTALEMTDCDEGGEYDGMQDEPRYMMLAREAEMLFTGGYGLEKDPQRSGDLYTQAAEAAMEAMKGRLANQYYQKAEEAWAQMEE
UniProt Q5JPH6: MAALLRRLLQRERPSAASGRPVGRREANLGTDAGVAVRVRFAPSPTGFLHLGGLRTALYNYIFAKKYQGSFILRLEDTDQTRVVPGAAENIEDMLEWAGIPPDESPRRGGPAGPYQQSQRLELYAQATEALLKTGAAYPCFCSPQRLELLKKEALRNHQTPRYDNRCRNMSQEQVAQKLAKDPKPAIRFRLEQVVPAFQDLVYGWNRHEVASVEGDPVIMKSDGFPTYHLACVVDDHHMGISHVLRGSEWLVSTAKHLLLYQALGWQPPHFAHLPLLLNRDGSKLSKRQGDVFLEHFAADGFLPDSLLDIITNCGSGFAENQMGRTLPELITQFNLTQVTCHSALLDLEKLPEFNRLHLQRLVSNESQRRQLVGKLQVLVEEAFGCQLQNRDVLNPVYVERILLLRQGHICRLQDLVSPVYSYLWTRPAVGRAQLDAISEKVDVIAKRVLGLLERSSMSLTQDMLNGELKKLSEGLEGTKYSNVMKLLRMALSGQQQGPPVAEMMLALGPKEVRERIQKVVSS
UniProt O75521: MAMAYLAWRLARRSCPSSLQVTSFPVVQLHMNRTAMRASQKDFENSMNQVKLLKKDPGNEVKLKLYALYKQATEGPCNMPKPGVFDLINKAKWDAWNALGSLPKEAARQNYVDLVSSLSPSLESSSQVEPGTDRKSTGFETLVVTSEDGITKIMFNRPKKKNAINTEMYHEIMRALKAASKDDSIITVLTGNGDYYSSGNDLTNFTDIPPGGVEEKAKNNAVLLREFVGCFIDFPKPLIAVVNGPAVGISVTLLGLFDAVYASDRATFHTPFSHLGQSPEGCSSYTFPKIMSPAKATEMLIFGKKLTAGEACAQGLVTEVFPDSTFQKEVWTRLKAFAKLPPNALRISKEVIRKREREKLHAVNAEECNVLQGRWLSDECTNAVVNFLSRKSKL
UniProt Q8TEA8: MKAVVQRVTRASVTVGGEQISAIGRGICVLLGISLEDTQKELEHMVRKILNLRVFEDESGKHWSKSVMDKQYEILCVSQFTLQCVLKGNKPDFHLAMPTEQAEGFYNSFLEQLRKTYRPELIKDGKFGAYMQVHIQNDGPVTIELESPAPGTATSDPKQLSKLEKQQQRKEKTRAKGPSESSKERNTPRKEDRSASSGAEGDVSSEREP
UniProt P41567, whole entry, looked up: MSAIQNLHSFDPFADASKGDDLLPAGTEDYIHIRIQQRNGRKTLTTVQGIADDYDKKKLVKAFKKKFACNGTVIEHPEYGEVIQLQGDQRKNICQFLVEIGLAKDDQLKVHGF
UniProt Q9NY33: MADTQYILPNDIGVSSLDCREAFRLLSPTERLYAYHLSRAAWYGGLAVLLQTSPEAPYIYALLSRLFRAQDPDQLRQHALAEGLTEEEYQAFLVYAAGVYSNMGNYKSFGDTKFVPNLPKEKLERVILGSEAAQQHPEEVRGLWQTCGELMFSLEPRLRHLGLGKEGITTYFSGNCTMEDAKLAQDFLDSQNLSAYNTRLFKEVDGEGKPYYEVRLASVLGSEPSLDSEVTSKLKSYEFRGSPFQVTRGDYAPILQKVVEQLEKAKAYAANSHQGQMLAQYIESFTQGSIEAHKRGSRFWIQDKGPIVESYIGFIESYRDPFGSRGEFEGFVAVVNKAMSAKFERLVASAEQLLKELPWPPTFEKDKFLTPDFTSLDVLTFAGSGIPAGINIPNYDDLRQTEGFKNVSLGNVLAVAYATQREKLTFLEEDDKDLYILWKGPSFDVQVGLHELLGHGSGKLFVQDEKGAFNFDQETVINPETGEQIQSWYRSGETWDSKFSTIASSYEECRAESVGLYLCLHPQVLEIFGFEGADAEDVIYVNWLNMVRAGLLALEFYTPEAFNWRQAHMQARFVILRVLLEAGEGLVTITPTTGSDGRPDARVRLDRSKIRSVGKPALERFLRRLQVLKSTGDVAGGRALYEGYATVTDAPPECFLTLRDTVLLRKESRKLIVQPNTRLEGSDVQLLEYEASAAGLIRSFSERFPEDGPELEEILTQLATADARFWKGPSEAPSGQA
UniProt P98172: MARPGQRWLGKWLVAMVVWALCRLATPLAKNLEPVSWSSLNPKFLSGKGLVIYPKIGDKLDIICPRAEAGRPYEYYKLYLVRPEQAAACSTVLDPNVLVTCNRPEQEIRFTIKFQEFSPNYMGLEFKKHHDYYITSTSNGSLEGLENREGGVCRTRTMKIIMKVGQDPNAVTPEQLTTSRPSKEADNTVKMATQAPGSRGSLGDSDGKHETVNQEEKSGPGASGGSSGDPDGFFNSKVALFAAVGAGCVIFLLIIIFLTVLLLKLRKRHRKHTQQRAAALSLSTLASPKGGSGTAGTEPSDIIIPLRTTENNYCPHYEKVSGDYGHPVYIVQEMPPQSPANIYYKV
UniProt Q92611: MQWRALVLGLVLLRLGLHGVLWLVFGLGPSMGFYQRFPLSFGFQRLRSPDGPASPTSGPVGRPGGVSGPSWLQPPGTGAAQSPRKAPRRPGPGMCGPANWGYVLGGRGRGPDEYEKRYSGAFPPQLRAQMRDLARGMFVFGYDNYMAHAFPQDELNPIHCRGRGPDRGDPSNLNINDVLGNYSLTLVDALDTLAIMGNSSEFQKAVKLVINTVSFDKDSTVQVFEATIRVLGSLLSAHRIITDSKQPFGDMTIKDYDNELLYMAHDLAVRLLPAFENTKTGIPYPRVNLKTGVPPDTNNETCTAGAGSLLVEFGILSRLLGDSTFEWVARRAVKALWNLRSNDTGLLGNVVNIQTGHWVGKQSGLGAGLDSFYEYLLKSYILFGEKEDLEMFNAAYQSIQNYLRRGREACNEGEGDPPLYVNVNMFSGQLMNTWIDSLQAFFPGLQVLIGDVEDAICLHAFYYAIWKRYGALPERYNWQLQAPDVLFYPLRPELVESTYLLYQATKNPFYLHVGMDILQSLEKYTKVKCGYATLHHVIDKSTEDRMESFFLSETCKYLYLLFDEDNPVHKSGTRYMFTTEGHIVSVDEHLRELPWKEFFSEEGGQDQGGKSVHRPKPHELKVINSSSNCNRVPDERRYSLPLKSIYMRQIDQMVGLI
UniProt P60981: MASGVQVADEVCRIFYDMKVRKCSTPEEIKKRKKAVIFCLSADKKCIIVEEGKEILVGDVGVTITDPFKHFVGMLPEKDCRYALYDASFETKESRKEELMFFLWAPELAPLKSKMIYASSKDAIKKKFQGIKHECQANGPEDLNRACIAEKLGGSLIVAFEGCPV
UniProt Q7Z388: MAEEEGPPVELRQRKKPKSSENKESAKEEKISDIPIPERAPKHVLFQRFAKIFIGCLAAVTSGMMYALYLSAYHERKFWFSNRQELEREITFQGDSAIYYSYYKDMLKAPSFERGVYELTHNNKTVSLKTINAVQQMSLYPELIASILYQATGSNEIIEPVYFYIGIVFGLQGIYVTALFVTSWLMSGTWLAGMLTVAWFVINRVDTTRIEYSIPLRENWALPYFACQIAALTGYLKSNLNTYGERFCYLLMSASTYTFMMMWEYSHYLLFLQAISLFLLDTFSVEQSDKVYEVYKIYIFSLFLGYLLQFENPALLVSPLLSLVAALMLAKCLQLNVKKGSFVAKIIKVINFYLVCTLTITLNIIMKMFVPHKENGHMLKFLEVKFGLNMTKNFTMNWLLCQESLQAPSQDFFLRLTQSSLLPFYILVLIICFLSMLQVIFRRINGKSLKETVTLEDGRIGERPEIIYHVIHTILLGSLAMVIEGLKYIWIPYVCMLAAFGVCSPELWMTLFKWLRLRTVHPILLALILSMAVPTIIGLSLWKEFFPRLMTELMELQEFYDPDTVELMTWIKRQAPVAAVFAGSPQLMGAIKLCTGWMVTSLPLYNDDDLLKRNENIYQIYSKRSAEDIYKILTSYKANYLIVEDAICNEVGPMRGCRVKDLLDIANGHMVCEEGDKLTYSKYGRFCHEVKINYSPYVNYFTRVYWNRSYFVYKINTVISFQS
UniProt Q14919: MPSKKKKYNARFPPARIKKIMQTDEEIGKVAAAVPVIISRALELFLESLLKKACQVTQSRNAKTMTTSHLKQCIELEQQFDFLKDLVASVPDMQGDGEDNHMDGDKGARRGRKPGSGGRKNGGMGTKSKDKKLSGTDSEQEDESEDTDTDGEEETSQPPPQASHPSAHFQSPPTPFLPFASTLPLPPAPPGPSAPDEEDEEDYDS
UniProt Q14156: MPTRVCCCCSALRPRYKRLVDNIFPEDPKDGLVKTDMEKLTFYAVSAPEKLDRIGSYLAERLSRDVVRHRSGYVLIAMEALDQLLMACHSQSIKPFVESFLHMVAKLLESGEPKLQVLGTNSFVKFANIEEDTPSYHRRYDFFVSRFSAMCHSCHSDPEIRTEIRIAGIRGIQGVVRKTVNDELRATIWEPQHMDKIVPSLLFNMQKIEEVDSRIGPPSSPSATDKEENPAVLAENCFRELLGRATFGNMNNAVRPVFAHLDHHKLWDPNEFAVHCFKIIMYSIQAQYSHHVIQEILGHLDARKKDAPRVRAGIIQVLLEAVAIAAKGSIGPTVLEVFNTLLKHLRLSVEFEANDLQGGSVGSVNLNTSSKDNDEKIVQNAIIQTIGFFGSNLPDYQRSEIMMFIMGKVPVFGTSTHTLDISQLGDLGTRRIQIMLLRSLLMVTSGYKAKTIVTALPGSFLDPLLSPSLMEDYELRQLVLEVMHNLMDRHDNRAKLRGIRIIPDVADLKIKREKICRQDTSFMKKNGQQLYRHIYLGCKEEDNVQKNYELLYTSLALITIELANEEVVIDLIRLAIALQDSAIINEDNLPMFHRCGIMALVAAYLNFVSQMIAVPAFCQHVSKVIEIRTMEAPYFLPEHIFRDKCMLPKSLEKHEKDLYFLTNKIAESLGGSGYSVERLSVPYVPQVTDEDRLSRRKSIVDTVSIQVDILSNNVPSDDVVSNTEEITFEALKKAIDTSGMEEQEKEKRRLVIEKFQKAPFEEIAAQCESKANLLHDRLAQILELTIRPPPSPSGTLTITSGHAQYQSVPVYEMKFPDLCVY

[2] = compound: C/C(=N\NC(=O)C1=CC(=CC=C1)S(=O)(=O)N2CCOCC2)/C3=C(C=CC(=C3)Cl)O
Summary of the method: as §1

[3] = compound: C1=CC(=CC=C1C2=NC3=C(N2)C=C(C=C3)C(=O)N)OC4=CC=C(C=C4)Cl
Summary of the method: as §1

[4] = compound: C1=CC2=C(C=CC(=C2)/C=C\3/C(=O)NC(=NCC4=CC=CS4)S3)N=C1
Summary of the method: as §1

[5] = compound: C1=CC2=NC=CN=C2C=C1/C=C/3\C(=O)NC(=O)S3
Summary of the method: as §1

[6] = compound: C1=CC=C(C=C1)C2=NC(=C(N2)C3=CC=NC=C3)C4=CC(=C(C=C4)Cl)O
Summary of the method: as §1

[7] = compound: C1=CC=C2C(=C1)C3=NNC4=CC=CC(=C43)C2=O
Summary of the method: as §1

[8] = compound: C1CCN(C1)C(=O)NC2=CC=CC(=C2)NC3=NC=C(C(=N3)NCCC4=CN=CN4)Br
Summary of the method: as §1

[9] = compound: C1CN(CCC1(CC2=CC=C(C=C2)Cl)N)C3=NC=NC4=C3C=CN4
Summary of the method: as §1

[10] = compound: C1COCCN1CCN2C3=CC=CC=C3N=C2NC(=O)C4=CC(=CC=C4)[N+](=O)[O-] [IRAK-1-4 Inhibitor I]
Summary of the method: as §1

Measured: log2 fold change

DUS1L (UniProt Q6P1R4)
inactive: [1] -0.013 | [2] -0.05 | [3] 0.047 | [4] 0.041 | [5] -0.029 | [6] -0.056 | [7] 0.049 | [8] -0.068 | [9] -0.01 | [10] 0.067

EHD2 (UniProt Q9NZN4)
inactive: [1] 0.048 | [2] -0.167 | [3] -0.043 | [4] -0.063 | [5] 0.012 | [6] -0.002 | [7] -0.071 | [8] -0.004 | [9] 0.012 | [10] 0.01

DR1 (UniProt Q01658)
inactive: [1] 0.052 | [2] 0.013 | [3] 0.021 | [4] 0.03 | [5] 0.016 | [6] 0.006 | [7] -0.002 | [8] 0.021 | [9] -0.032 | [10] 0.027

ECHDC3 (UniProt Q96DC8)
inactive: [1] -0.058 | [2] 0.15 | [3] 0.028 | [4] -0.155 | [5] 0.071 | [6] 0.048 | [7] 0.019 | [8] 0.072 | [9] -0.051 | [10] -0.048

ECPAS (UniProt Q5VYK3)
inactive: [1] 0.042 | [2] 0.002 | [3] 0.02 | [4] 0.018 | [5] 0.008 | [6] -0.014 | [7] -0.067 | [8] -0.005 | [9] 0.02 | [10] 0.009

ECM1 isoform 4 (UniProt Q16610)
inactive: [1] -0.012 | [2] 0.063 | [3] 0.019 | [4] -0.038 | [5] 0.097 | [6] -0.005 | [7] 0.021 | [8] 0.014 | [9] 0.02 | [10] 0.066

EBAG9 isoform 2 (UniProt O00559)
inactive: [1] 0.1 | [2] 0 | [3] -0.02 | [4] 0.051 | [5] 0.005 | [6] -0.013 | [7] -0.024 | [8] -0.013 | [9] 0.004 | [10] 0.165

DYNLRB1 (UniProt Q9NP97)
inactive: [1] -0.013 | [2] 0.068 | [3] 0.021 | [4] 0.033 | [5] -0.04 | [6] -0.041 | [7] 0.026 | [8] -0.045 | [9] 0.043 | [10] -0.004

EEF2K (UniProt O00418)
inactive: [1] 0.032 | [2] 0.024 | [3] -0.028 | [4] 0.041 | [5] 0.038 | [6] 0 | [7] -0.026 | [8] -0.029 | [9] -0.017 | [10] -0.023

Taken from the results shown (2 entries):
EHD2 (UniProt Q9NZN4)
inactive: [1] 0.048 | [2] -0.167 | [3] -0.043 | [4] -0.063 | [5] 0.012 | [6] -0.002 | [7] -0.071 | [8] -0.004 | [9] 0.012 | [10] 0.01

DR1 (UniProt Q01658)
inactive: [1] 0.052 | [2] 0.013 | [3] 0.021 | [4] 0.03 | [5] 0.016 | [6] 0.006 | [7] -0.002 | [8] 0.021 | [9] -0.032 | [10] 0.027

Next part:

DUS3L (UniProt Q96G46)
inactive: [1] -0.009 | [2] -0.001 | [3] 0.048 | [4] 0.059 | [5] 0.013 | [6] 0.032 | [7] -0.013 | [8] -0.012 | [9] -0.007 | [10] 0.017

EARS2 (UniProt Q5JPH6)
inactive: [1] 0.005 | [2] 0.043 | [3] 0.027 | [4] -0.076 | [5] 0.028 | [6] 0.005 | [7] -0.063 | [8] -0.018 | [9] -0.001 | [10] 0.002

ECI2 (UniProt O75521)
inactive: [1] 0.032 | [2] 0.01 | [3] 0.024 | [4] -0.011 | [5] 0.022 | [6] -0.019 | [7] -0.111 | [8] -0.03 | [9] 0.045 | [10] 0.054

DTD1 (UniProt Q8TEA8)
inactive: [1] -0.046 | [2] 0.029 | [3] -0.025 | [4] -0.022 | [5] -0.026 | [6] 0.035 | [7] 0.042 | [8] 0.031 | [9] -0.012 | [10] -0.032

DPH2 (UniProt Q9BQC3)
inactive: [1] -0.029 | [2] -0.03 | [3] -0.041 | [4] -0.002 | [5] 0.005 | [6] -0.033 | [7] 0.025 | [8] 0.035 | [9] 0.011 | [10] -0.005

EIF1 (UniProt P41567)
inactive: [1] -0.006 | [2] -0.022 | [3] 0.063 | [4] -0.031 | [5] -0.004 | [6] 0.044 | [7] 0.011 | [8] -0.027 | [9] -0.023 | [10] 0.02

DPP3 (UniProt Q9NY33)
inactive: [1] -0.014 | [2] 0.053 | [3] -0.044 | [4] -0.004 | [5] 0 | [6] -0.007 | [7] 0.013 | [8] 0.005 | [9] 0.006 | [10] 0.006

EFNB1 (UniProt P98172)
inactive: [1] -0.012 | [2] 0.006 | [3] -0.011 | [4] -0.126 | [5] 0 | [6] -0.046 | [7] -0.161 | [8] -0.063 | [9] 0.07 | [10] 0.039

EHD4 (UniProt Q9H223)
inactive: [1] 0.028 | [2] 0.153 | [3] -0.087 | [4] -0.023 | [5] 0.096 | [6] 0.013 | [7] -0.072 | [8] -0.024 | [9] 0.057 | [10] -0.035

EEF1G isoform 2 (UniProt P26641)
inactive: [1] 0.003 | [2] 0.043 | [3] -0.015 | [4] 0.002 | [5] 0.006 | [6] -0.001 | [7] 0.044 | [8] 0.022 | [9] -0.006 | [10] 0.003

EDEM1 (UniProt Q92611)
inactive: [1] 0.033 | [2] 0.11 | [3] -0.018 | [4] 0.167 | [5] 0.014 | [6] -0.018 | [7] -0.156 | [8] 0.026 | [9] -0.062 | [10] 0.114

DPY19L1, A0A1B0GW05
inactive: [1] 0.004 | [2] 0.033 | [3] -0.016 | [4] 0.022 | [5] -0.024 | [6] -0.017 | [7] 0.006 | [8] -0.012 | [9] -0.026 | [10] 0.078

DSTN (UniProt P60981)
inactive: [1] -0.038 | [2] -0.027 | [3] -0.007 | [4] 0.014 | [5] 0.013 | [6] 0 | [7] 0.005 | [8] -0.021 | [9] -0.012 | [10] -0.007

EEF1A1, A0A087WVQ9
inactive: [1] 0.029 | [2] -0.049 | [3] 0.054 | [4] -0.069 | [5] -0.016 | [6] -0.035 | [7] -0.072 | [8] -0.019 | [9] -0.001 | [10] 0.03

DPY19L4 (UniProt Q7Z388)
inactive: [1] -0.058 | [2] 0.037 | [3] 0.016 | [4] 0.16 | [5] 0.013 | [6] 0.179 | [7] 0.06 | [8] -0.063 | [9] -0.094 | [10] 0.024

DRAP1 isoform 2 (UniProt Q14919)
inactive: [1] -0.058 | [2] -0.16 | [3] 0.054 | [4] -0.015 | [5] -0.002 | [6] -0.015 | [7] -0.041 | [8] -0.012 | [9] 0.005 | [10] 0.016

DUT (UniProt P33316)
inactive: [1] -0.028 | [2] -0.256 | [3] 0.027 | [4] 0.008 | [5] 0.008 | [6] -0.01 | [7] 0.019 | [8] 0.003 | [9] 0.011 | [10] 0.021

EFR3A (UniProt Q14156)
inactive: [1] 0.016 | [2] 0.039 | [3] 0.026 | [4] 0.051 | [5] 0.053 | [6] -0.019 | [7] 0.02 | [8] 0.149 | [9] -0.08 | [10] 0.014

EEF1E1 (UniProt O43324)
inactive: [1] 0.04 | [2] -0.003 | [3] -0.037 | [4] -0.014 | [5] -0.007 | [6] -0.014 | [7] -0.008 | [8] 0 | [9] 0.034 | [10] -0.014

DPP9 isoform 2 (UniProt Q86TI2)
inactive: [1] 0.009 | [2] 0.03 | [3] 0.024 | [4] 0.017 | [5] -0.003 | [6] 0.004 | [7] -0.005 | [8] 0.019 | [9] 0.014 | [10] -0.02

EDEM3 (UniProt Q9BZQ6)
inactive: [1] -0.016 | [2] 0.004 | [3] 0.002 | [4] -0.001 | [5] -0.01 | [6] 0.03 | [7] 0.037 | [8] 0.005 | [9] 0.019 | [10] -0.005

From the supplement of paper PMC10849652
